Record: PubChem BioAssay AID1259405 (NCATS, 2018)

Purpose: 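Knock-downs that lift recombinant protein yield in hamster ovary cells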 (primary screen)
Cells: Chinese hamster CHO-K1 ovary cells with stable secreted eGFP expression
Knock-down reagent: single siRNA against mouse genes, 0.8 pmol siRNA per well (2 µl of 400 nM stock)
Timing: 3 days
Measurement: 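Per-well intracellular GFP measured by laser scanning cytometry, plus viability from ATP luminescence, each relative to plate median of non-targeting control wells, in %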
Reading the numbers: GFP, % of control: higher = more GFP per well, higher productivity; viability (ATP), % of control: higher = more viable cells (more ATP)
Rule for the call: 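a knock-down is called active if GFP reaches 120% or more of non-targeting control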
Shown is a random part of about 50,000 reagents tested. About 4,000 of all reagents (8%) were called active. 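Mouse siRNA library applied to hamster cells; one well for each siRNA.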 Reagents against one gene are numbered here.

target gene | reagent no. | GFP, % of control | viability (ATP), % of control | call
Nrbp2 (GeneID 223649) | 1 | 47.3 | 60.2 | inactive
Tlr1 (GeneID 21897) | 1 | 101 | 94.9 | inactive
Tlr1 (GeneID 21897) | 2 | 65.7 | 65.4 | inactive
Tlr1 (GeneID 21897) | 3 | 64.8 | 70.8 | inactive
Mrtfb (GeneID 239719) | 1 | 60 | 76.8 | inactive
Mrtfb (GeneID 239719) | 2 | 93.6 | 97.2 | inactive
Mrtfb (GeneID 239719) | 3 | 98.8 | 87.5 | inactive
Mrtfb (GeneID 239719) | 4 | 86 | 84.7 | inactive
Mrtfb (GeneID 239719) | 5 | 61.7 | 64.9 | inactive
Mrtfb (GeneID 239719) | 6 | 72.3 | 96.2 | inactive
Htatip2 (GeneID 53415) | 1 | 57.1 | 69.4 | inactive
Htatip2 (GeneID 53415) | 2 | 44.9 | 50.5 | inactive
Htatip2 (GeneID 53415) | 3 | 66.9 | 73.9 | inactive
Ntm (GeneID 235106) | 1 | 78.3 | 84.1 | inactive
Ntm (GeneID 235106) | 2 | 70.3 | 60.2 | inactive
Mlxip (GeneID 208104) | 1 | 56.5 | 50.1 | inactive
Mlxip (GeneID 208104) | 2 | 53.6 | 61.6 | inactive
Mlxip (GeneID 208104) | 3 | 50 | 83.6 | inactive
Gatc (GeneID 384281) | 1 | 85.1 | 96.3 | inactive
Gatc (GeneID 384281) | 2 | 81.8 | 47.2 | inactive
Gatc (GeneID 384281) | 3 | 56.7 | 77 | inactive

Sorted by “viability (ATP), % of control” (high to low): some entries from above.
target gene | reagent no. | GFP, % of control | viability (ATP), % of control | call
Mrtfb (GeneID 239719) | 2 | 93.6 | 97.2 | inactive
Mrtfb (GeneID 239719) | 6 | 72.3 | 96.2 | inactive
Mrtfb (GeneID 239719) | 3 | 98.8 | 87.5 | inactive
Mrtfb (GeneID 239719) | 4 | 86 | 84.7 | inactive
Htatip2 (GeneID 53415) | 3 | 66.9 | 73.9 | inactive
Htatip2 (GeneID 53415) | 1 | 57.1 | 69.4 | inactive
Mrtfb (GeneID 239719) | 5 | 61.7 | 64.9 | inactive
Htatip2 (GeneID 53415) | 2 | 44.9 | 50.5 | inactive

The listing continues:
target gene | reagent no. | GFP, % of control | viability (ATP), % of control | call
Sfrp5 (GeneID 54612) | 1 | 56.2 | 65.8 | inactive
Sfrp5 (GeneID 54612) | 2 | 58.3 | 47.5 | inactive
Sfrp5 (GeneID 54612) | 3 | 89.5 | 92.3 | inactive
Fabp5 (GeneID 16592) | 1 | 76.7 | 106 | inactive
Fabp5 (GeneID 16592) | 2 | 70.7 | 63.7 | inactive
Fabp5 (GeneID 16592) | 3 | 43.6 | 40.5 | inactive
Slc30a7 (GeneID 66500) | 1 | 103 | 84.4 | inactive
Slc30a7 (GeneID 66500) | 2 | 76.2 | 63.2 | inactive
Slc30a7 (GeneID 66500) | 3 | 75.2 | 59.9 | inactive
Fdft1 (GeneID 14137) | 1 | 118 | 76.4 | inactive
Fdft1 (GeneID 14137) | 2 | 136 | 164 | active
Fdft1 (GeneID 14137) | 3 | 96 | 89.3 | inactive
Ccdc137 (GeneID 67291) | 1 | 56.9 | 45.4 | inactive
Ccdc137 (GeneID 67291) | 2 | 116 | 105 | inactive
Ccdc137 (GeneID 67291) | 3 | 90.6 | 62.9 | inactive
Havcr1 (GeneID 171283) | 1 | 70.6 | 72.1 | inactive
Havcr1 (GeneID 171283) | 2 | 156 | 90.9 | active
Ccna1 (GeneID 12427) | 1 | 94.6 | 80.5 | inactive
Ccna1 (GeneID 12427) | 2 | 118 | 98.2 | inactive
Tfb1m (GeneID 224481) | 1 | 122 | 81.7 | active
Tfb1m (GeneID 224481) | 2 | 73.8 | 76.5 | inactive
Pex16 (GeneID 18633) | 1 | 64.4 | 75.2 | inactive
Pex16 (GeneID 18633) | 2 | 180 | 35 | active
Pex16 (GeneID 18633) | 3 | 90.8 | 78.2 | inactive
Ermp1 (GeneID 226090) | 1 | 95.5 | 79.9 | inactive
Ermp1 (GeneID 226090) | 2 | 77.8 | 85.7 | inactive
Ermp1 (GeneID 226090) | 3 | 60.7 | 67.6 | inactive
Cib2 (GeneID 56506) | 1 | 86.3 | 76.3 | inactive
Cib2 (GeneID 56506) | 2 | 58.1 | 67.3 | inactive
Cib2 (GeneID 56506) | 3 | 60.3 | 66.4 | inactive
Ube2s (GeneID 77891) | 1 | 92.2 | 56.5 | inactive
Ube2s (GeneID 77891) | 2 | 69.2 | 67.5 | inactive
Ube2s (GeneID 77891) | 3 | 48.5 | 93.2 | inactive
Slc60a2c (GeneID 215928) | 1 | 64.6 | 53.3 | inactive
Slc60a2c (GeneID 215928) | 2 | 78 | 97 | inactive
Slc60a2c (GeneID 215928) | 3 | 143 | 162 | active
